The other results are listed elsewhere or left out.
Compound: CC1Cc2ccccc2N1C(=O)C1CCCN(C1)C(=O)CCl (mixture of isomers) [TRIM25 ligand 11 (diastereomer mixture)]
Assay: probe-labelled cysteine peptide fold change vs DMSO (competition) (log2 fold change); higher = less target engagement (more negative = stronger competition)
Conditions: THP-1, incubation time: 4 h
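Further: competitive chemoproteomic profiling in live THP-1 cells with an iodoacetamide desthiobiotin (IA-DTB) probe, comparing probe-labelled peptide intensities in compound-treated cells against DMSO-treated controls.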

Target	probe-labelled cysteine peptide fold change (10 µM)	probe-labelled cysteine peptide fold change (50 µM)
PTPA_Q15257_199+200_IDYGTGHEAAFAAFLCCLCK (UniProt Q15257)	-0.139	-0.0286
PTPN11_Q06124_259_QGFWEEFETLQQQECK (UniProt Q06124)	-0.0354	0.00349
PSME4_Q14997_958_TLTVEGCEYK (UniProt Q14997)	0.0335	0.0375
PSMB1_P20618_224_ICIVTK (UniProt P20618)	-0.0748	0.0865
PTCD3_Q96EY7_260_NEHSYCTMIR (UniProt Q96EY7)	0.0725	0.00912
PTPRC_P08575_1072_HGDQEICAQYWGEGK (UniProt P08575)	0.201	0.122
PSMB8_P28062_174_GMGLSMGSMICGWDK (UniProt P28062)	-0.00669	-0.0214
PSMD3_O43242_210_CYYYHAR (UniProt O43242)	0.202	0.387
PTPN6_P29350_382_AYGPYSVTNCGEHDTTEYK (UniProt P29350)	0.0863	-0.0754
PSME4_Q14997_637_CCPEESLK (UniProt Q14997)	0.064	0.017
PTK2B_Q14289_298_QLTSQDAKPTCLAEFK (UniProt Q14289)	-0.00395	-0.0466
PSMD12_O00232_74_MCYEAK (UniProt O00232)	0.037	0.0458
PSMD11_O00231_202_TTANAIYCPPK (UniProt O00231)	-0.0391	-0.0508
PTPRF_P10586_156_TATMLCAAGGNPDPEISWFK (UniProt P10586)	-0.00322	0.138
PTK2B_Q14289_744_LQFQVPEGLCASSPTLTSPMEYPSPVNSLHTPPLHR (UniProt Q14289)	0.232	-0.331
PTTG1IP_P53801_81_ACLDYPVTSVLPPASLCK (UniProt P53801)	-0.074	-0.198
PTPN1_P18031_344_EETQEDKDCPIK (UniProt P18031)	-0.316	-0.383
PTPN7_P35236_204_CVHYWPTEEETYGPFQIR (UniProt P35236)	-0.0461	-0.0381
PTBP1_P26599_251_LSLDGQNIYNACCTLR (UniProt P26599)	-0.158	0.24

Copied from the list.
probe-labelled cysteine peptide fold change (10 µM) with PSME4_Q14997_958_TLTVEGCEYK (UniProt Q14997) is entered as 0.0335
probe-labelled cysteine peptide fold change (50 µM) with PTPRC_P08575_1072_HGDQEICAQYWGEGK (UniProt P08575) is entered as 0.122

Later entries:

Target	probe-labelled cysteine peptide fold change (10 µM)	probe-labelled cysteine peptide fold change (50 µM)
PTPN7_P35236_291_LVAEVEESPETAAHPGPIVVHCSAGIGR (UniProt P35236)	0.0965	-0.335
PTPMT1_Q8WUK0_127+132_YQSLGQCVYVHCK (UniProt Q8WUK0)	0.189	0.019
PUM1_Q14671_234_SESGGLGVSMVEYVLSSSPGDSCLRK (UniProt Q14671)	-0.338	-0.386
PTK2B_Q14289_650_LPKPDLCPPVLYTLMTR (UniProt Q14289)	-0.0455	-0.11
PSMA6_P60900_115_YGYEIPVDMLCK (UniProt P60900)	-0.0584	-0.105
PTGES3_Q15185_58_HLNEIDLFHCIDPNDSK (UniProt Q15185)	-0.0289	-0.171
PSMC3_P17980_387_CTDDFNGAQCK (UniProt P17980)	0.0274	0.067
PSMC3IP_Q9P2W1_107_VQSLQQSCR (UniProt Q9P2W1)	0.0463	0.134
PTPN6_P29350_361_CVPYWPEVGMQR (UniProt P29350)	0.143	-0.194
PSMB2_P49721_46_ILLLCVGEAGDTVQFAEYIQK (UniProt P49721)	-0.0992	0.312
PSD4_Q8NDX1_32_LPDHPQPMEILNLYLGDSLEPHPGECPR (UniProt Q8NDX1)	0.0517	-0.268
PSMC5_P62195_209_AVAHHTDCTFIR (UniProt P62195)	0.13	0.11
PSMA7_O14818_91_VECQSHR (UniProt O14818)	0.116	0.145
PSMD2_Q13200_459_NECDPALALLSDYVLHNSNTMR (UniProt Q13200)	0.172	-0.451
PSMA6_P60900_47_GKDCAVIVTQK (UniProt P60900)	-0.471	-0.33
PTPN7_P35236_228_ECPEYTVR (UniProt P35236)	-0.0455	0.0226
PSMD1_Q99460_112_QCVENADLPEGEK (UniProt Q99460)	0.0605	0.00508
PSPH_P78330_38_ICGVEDAVSEMTR (UniProt P78330)	0.194	-0.00278

Source: the supplement of paper PMC12067093, “Discovery and optimisation of a covalent ligand for TRIM25 and its application to targeted protein ubiquitination” (Chemical Science, 2025)
